The test concerns the target NF-κB p65 subunit (human (endogenous in hTBE cells)) (UniProt Q04206). Nature of the test: native gel or EMSA; supershift: 2.5 μg nuclear extract of hTBE cells (2 hours after TSB or Ps. a. challenge) preincubated 10 minutes with antisera against NF-κB p50 or p65, then 32P-labelled NF-κB consensus oligonucleotide, 20 minutes at room temperature; 10 mM TrisHCl pH 7.9, 50 mM KCl, 1 mM DTT, 0.25 mg/ml BSA, 4% glycerol; 5% non-denaturing gel.

By UniProt entry, the sequences of proteins in these tests, tags left out. Residues count along the entry.
UniProt Q04206: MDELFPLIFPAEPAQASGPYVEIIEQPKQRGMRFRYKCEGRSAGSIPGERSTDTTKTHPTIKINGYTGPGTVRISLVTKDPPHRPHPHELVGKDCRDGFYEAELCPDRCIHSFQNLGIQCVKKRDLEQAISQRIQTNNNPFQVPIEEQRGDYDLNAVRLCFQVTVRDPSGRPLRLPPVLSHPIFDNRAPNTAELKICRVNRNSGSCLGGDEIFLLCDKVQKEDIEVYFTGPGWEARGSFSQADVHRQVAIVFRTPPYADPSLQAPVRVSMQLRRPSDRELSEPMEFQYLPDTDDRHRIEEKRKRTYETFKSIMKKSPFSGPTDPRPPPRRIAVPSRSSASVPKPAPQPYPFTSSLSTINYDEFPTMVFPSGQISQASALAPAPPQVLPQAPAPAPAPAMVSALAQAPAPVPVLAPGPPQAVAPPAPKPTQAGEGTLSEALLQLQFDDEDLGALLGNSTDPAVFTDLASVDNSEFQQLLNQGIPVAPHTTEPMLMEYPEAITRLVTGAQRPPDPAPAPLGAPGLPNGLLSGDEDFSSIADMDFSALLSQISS
UniProt P19838, residues 1-433: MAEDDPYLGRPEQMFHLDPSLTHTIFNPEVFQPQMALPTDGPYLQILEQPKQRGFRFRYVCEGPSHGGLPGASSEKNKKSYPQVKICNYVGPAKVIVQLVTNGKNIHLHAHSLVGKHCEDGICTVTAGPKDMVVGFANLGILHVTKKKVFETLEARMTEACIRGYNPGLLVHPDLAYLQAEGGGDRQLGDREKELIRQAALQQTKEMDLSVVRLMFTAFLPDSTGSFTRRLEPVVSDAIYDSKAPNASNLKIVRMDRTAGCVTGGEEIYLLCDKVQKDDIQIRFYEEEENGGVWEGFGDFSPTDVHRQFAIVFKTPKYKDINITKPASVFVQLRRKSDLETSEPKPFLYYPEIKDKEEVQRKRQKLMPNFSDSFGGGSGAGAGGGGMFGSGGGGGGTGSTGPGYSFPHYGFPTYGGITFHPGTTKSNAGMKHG

Data on one substance can be found in publication PMC1087506.

These are yes or no findings as the source states them, for the method shown. Some binding calls cover weakened binding; strength is not graded here.

For “NF-κB p50 subunit (from UniProt P19838 1-433)”, the binding result is recorded as “binds”.
